The test system of the series is T1, NLVG(N56K+C71V) (NLS-LexA(1-87)-VIVID-Gal4AD) (artificial).
T1 sequence: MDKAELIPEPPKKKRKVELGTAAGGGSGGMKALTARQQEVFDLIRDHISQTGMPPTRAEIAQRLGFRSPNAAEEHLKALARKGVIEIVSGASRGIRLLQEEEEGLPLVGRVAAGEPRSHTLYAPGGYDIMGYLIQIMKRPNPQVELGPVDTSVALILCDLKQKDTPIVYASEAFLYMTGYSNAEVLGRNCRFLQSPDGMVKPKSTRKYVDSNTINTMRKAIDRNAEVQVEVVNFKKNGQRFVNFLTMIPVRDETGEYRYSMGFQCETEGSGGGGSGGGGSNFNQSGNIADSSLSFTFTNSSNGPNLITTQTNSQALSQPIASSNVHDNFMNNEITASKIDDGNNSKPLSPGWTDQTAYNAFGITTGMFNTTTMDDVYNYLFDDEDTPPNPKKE
Briefly: activity in cells. To be noted: yeast AH109, EYFP increased by blue light; highest induction ratio of the four; protein in cells.

Protein sequences can lack the tags named with them.

Consider “TCGAGGGCGTTCGTCCTCACTGTATGATCATACAGTCTGTATATATATACAGTACTGTATGATCATACAGGTTCCTGAAACGCAGATGTGCCTACTGTATATATATACAGTAACAATAAAGATTCA (double strand) [4xLexA UAS (P95)]”, for which the “activity on this sequence” value is listed as “active”.

Values taken from patent US20130345294.
